Results from patent US7115593B2 (priority 2000, dated 2006).
Read-outs that look alike come from different tables or passages of the source. At least one read-out could not be matched to a standard name with certainty.

Test system: Phytophthora infestans
Assay type: in vivo
Settings: single active compound, application rate 1 g/ha, tomato, protective, evaluation 3 days after inoculation

`CC(C)OC(=O)NC(C(=O)NC(C)c1nc2ccc(F)cc2s1)C(C)C` (centres unmarked) [compound of the formula (I), isopropyl 1-({[1-(6-fluoro-1,3-benzothiazol-2-yl)ethyl]-amino}carbonyl)-2-methylpropylcarbamate] gave an Efficacy in % of 39% and an Efficacy in % (listed as formula (I)) of 56%.
